Counter-ions that a name gives are not always drawn. The list shows a part of the results. Repeats in this data set agree poorly, so a single value says little.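 Human embryonic kidney cells were transiently transfected with a plasmid bearing a Renilla luciferase gene under the HSV-TK promoter. This first-round screen tests roughly ten thousand compounds for ones that increase reporter output.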

In the test the test system is HEK 293FT. The test can be described thus: log relative Renilla luciferase luminescence (reporter expression vs reference, reference not stated) (log (base not stated)); higher = higher recombinant reporter expression. The note with it: 10 µM; time after transfection 48 h.
With `O=C(O)CCC(=O)Nc1ccc(S(=O)(=O)Nc2nccs2)cc1` [Succinylsulfathiazole], the log was 0.142. As to `COc1ccccc1O` [Guaiacol], the log is 0.0581. Then `CNCCC(Oc1ccccc1OC)c1ccccc1` (centres undefined) [Nisoxetine hydrochloride], with 0.1. For the molecule `CCCCC(C)(O)C/C=C/[C@H]1[C@H](O)CC(=O)[C@@H]1CCCCCCC(=O)OC` (mixture of isomers) [Misoprostol], the log came out at 0.093. For `CC(=O)N(CC(C)C(=O)O)c1c(I)cc(I)c(N)c1I` (centres undefined) [Iocetamic acid], the log was -0.217. On to `CN(C)[C@@H]1C(O)=C(C(N)=O)C(=O)[C@@]2(O)C(O)=C3C(=O)c4c(O)ccc(Cl)c4[C@@](C)(O)[C@H]3C[C@@H]12` [Chlortetracycline hydrochloride], for which the log was determined as 0.089. In the case of `C[C@]12CC[C@@H]3c4ccc(O)cc4CC[C@H]3[C@@H]1CCC2=O` [Estrone] it was -0.147. Consider `CC1CS(=O)(=O)CCN1/N=C/c1ccc([N+](=O)[O-])o1` (centres undefined) [Nifurtimox], for which the log is -0.048. Regarding `CN1CC2c3ccccc3Oc3ccc(Cl)cc3C2C1` (centres undefined) [Asenapine maleate], the log amounted to 0.097.

On to `c1ccc2[nH]c(-c3cscn3)nc2c1` [Tiabendazole], for which the log amounted to 0.0503. Regarding `CCCCCCCN(CC)CCCC(O)c1ccc(NS(C)(=O)=O)cc1` (centres undefined) [Ibutilide fumarate], the log came to 0.233. Regarding `COc1ccc(-c2cc(=O)c3c(O)cc(O[C@@H]4O[C@H](CO[C@@H]5O[C@@H](C)[C@H](O)[C@@H](O)[C@H]5O)[C@@H](O)[C@H](O)[C@H]4O)cc3o2)cc1O` [Diosmin], the log is -0.0473. Then `C[C@]12CC[C@@H]3c4ccc(O)cc4CC[C@H]3[C@@H]1C[C@@H](O)[C@@H]2O` [Estriol], with 0.138. As to `CN(C)CCCO[C@@H]1[C@H]2OC(C)(C)O[C@H]2O[C@@H]1[C@H](O)CO` [Amiprilose hydrochloride], the log is -0.0476. Then `CC[N+](CC)(CC)CCC(O)(c1ccccc1)C1CCCCC1` (centres undefined) [Tridihexethyl chloride], with -0.04; and `Cc1noc(NS(=O)(=O)c2ccc(N)cc2)c1C` [Sulfisoxazole], with 0.0496. As to `CCc1cccc2c3c([nH]c12)C(CC)(CC(=O)O)OCC3` (centres undefined) [Etodolac], the log was -0.0154. As to `CC1=C(CC(=O)O)c2cc(F)ccc2/C1=C\c1ccc([S+](C)[O-])cc1` (centres undefined) [Sulindac], the log stood at 0.146. In the case of `CC(Oc1c(Cl)cccc1Cl)C1=NCCN1` (centres undefined) [Lofexidine] it was 0.06; in that of `CO/N=C(\C(=O)N[C@@H]1C(=O)N2C(C(=O)O)=C(C[N+]3(C)CCCC3)CS[C@H]12)c1csc(N)n1` [Cefepime hydrochloride], 0.113. As for `CCOC(=O)[C@H](CCc1ccccc1)N[C@@H](C)C(=O)N1CCC[C@H]1C(=O)O` [Enalapril maleate], the log was found to be 0.0542.

As for `CC(=O)Nc1ccc(O)cc1` [Acetaminophen], the log is -0.0175. Then `COc1ccc2[nH]c([S+]([O-])Cc3ncc(C)c(OC)c3C)nc2c1` (centres undefined) [Omeprazole], with 0.000654.

In the case of `Cc1ccccc1N1C(=O)c2cc(S(N)(=O)=O)c(Cl)cc2NC1C` (centres undefined) [Metolazone], the log is -0.0137. In the case of `Cc1cc(-n2c(=O)[nH]c(=O)n(C)c2=O)ccc1Oc1ccc(SC(F)(F)F)cc1` [Toltrazuril] it was -0.00526; in that of `C=CC1=C(C(=O)O)N2C(=O)[C@@H](NC(=O)/C(=N\OCC(=O)O)c3csc(N)n3)[C@H]2SC1` [Cefixime], -0.00154; in that of `OCCOCCN1CCN(C(c2ccccc2)c2ccc(Cl)cc2)CC1` (centres undefined) [Hydroxyzine dihydrochloride], 0.0238. As to `Nc1cc(-c2ccncc2)c[nH]c1=O` [Amrinone], the log came to 0.0308. For the molecule `c1ccc2c(c1)CCCc1cc(NCCN3CCOCC3)nnc1-2`, the log was found to be 0.0824. Then `CC(N)C12CC3CC(CC(C3)C1)C2` (centres undefined) [Rimantadine Hydrochloride], with -0.00861.

Take `CN(CCOc1ccc(CC2SC(=O)NC2=O)cc1)c1ccccn1` (centres undefined) [Rosiglitazone Hydrochloride]: the log is 0.0676. `CCC(=O)OCC(=O)[C@@]1(OC(=O)CC)[C@H](C)C[C@H]2[C@H]3[C@H]([C@@H](O)C[C@@]21C)[C@@]1(C)C=CC(=O)C=C1C[C@H]3Cl` [Alclometasone dipropionate]: the log was -0.242. Then `CCCc1nc(C(C)(C)O)c(C(=O)O)n1Cc1ccc(-c2ccccc2-c2nnn[nH]2)cc1` [Olmesartan], with 0.0581.

As for `OC(CCN1CCCCC1)(c1ccccc1)C1CCCCC1` (centres undefined) [Trihexyphenidyl-D,L Hydrochloride], the log came to 0.146.

Regarding `N=C(N)N/N=C/c1c(Cl)cccc1Cl` [Guanabenz acetate], the log was -0.313. Take `CN(C)CCOC(=O)COc1ccc(Cl)cc1` [Meclofenoxate hydrochloride]: the log was 0.0105. In the case of `CC(Oc1ccccc1)C(=O)N[C@@H]1C(=O)N2[C@@H]1SC(C)(C)[C@@H]2C(=O)O` (some centres undefined) [Phenethicillin potassium salt] it was -0.284; in that of `N[C@@H](C(=O)N[C@@H]1C(=O)N2C(C(=O)O)=C(Cl)CS[C@H]12)c1ccccc1` [Cefaclor hydrate], -0.0555; in that of `COc1ccc(C(=O)NCc2ccc(OCCN(C)C)cc2)cc1OC` [Itopride], 0.0364.

With `O=C1c2ccccc2S(=O)(=O)N1CCCCN1CCN(c2ncccn2)CC1` [Ipsapirone], the log was -0.0492. In the case of `Cn1c([N+](=O)[O-])cnc1COC(N)=O` [Ronidazole] it was 0.11.

`CN(C)[C@@H]1C(O)=C(C(N)=O)C(=O)[C@@]2(O)C(O)=C3C(=O)c4c(O)ccc(Cl)c4[C@@H](O)[C@H]3C[C@@H]12` [Demeclocycline hydrochloride]: the log is -0.0169.

`O=C(OCCOCCO)c1ccccc1Nc1cccc(C(F)(F)F)c1` [Etofenamate]: the log was -0.128. For the molecule `O=C(O)[C@H]1/C(=C/CO)O[C@@H]2CC(=O)N21` [Potassium clavulanate], the log was -0.15.

In the case of `Cc1cnc(C(=O)O)c[n+]1[O-]` [Acipimox], the log was -0.137. In the case of `CC(C)(C)NC[C@H](O)COc1ccccc1C1CCCC1` [Penbutolol sulfate] it was -0.0418; in that of `COc1ccc(C(=O)c2ccccc2O)c(O)c1` [Dioxybenzone], 0.0657.

Regarding `CN1CCC[C@@H]1CCO[C@](C)(c1ccccc1)c1ccc(Cl)cc1` [Clemastine fumarate], the log was found to be 0.0619. On to `CCOc1ccc(NC(C)=O)cc1` [Phenacetin], for which the log amounted to 0.131.

The record behind these values is the supplement of paper PMC7024190.
